Article PMC13284713
No constants are given. Whether binding was seen depends on the method and setting. In cells and extracts the contact can be indirect. Some binding calls cover weakened binding; strength is not graded here. Where a sequence is shown, tags or fusion partners need not be part of it.

By UniProt entry, the sequences of proteins in these tests, tags left out.
UniProt Q13547: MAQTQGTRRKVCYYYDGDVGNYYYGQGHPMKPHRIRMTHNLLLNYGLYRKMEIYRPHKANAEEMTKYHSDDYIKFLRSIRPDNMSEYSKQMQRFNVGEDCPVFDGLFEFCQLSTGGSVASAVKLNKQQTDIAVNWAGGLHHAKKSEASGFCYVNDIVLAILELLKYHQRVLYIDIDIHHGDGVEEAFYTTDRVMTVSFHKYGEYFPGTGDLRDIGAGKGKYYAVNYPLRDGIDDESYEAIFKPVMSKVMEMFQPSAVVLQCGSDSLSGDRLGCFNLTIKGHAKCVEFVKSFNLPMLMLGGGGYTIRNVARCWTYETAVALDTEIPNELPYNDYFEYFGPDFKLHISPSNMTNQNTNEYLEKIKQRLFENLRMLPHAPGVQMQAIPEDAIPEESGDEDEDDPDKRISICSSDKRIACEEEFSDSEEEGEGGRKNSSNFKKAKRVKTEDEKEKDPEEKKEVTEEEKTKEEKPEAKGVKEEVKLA
UniProt Q92769: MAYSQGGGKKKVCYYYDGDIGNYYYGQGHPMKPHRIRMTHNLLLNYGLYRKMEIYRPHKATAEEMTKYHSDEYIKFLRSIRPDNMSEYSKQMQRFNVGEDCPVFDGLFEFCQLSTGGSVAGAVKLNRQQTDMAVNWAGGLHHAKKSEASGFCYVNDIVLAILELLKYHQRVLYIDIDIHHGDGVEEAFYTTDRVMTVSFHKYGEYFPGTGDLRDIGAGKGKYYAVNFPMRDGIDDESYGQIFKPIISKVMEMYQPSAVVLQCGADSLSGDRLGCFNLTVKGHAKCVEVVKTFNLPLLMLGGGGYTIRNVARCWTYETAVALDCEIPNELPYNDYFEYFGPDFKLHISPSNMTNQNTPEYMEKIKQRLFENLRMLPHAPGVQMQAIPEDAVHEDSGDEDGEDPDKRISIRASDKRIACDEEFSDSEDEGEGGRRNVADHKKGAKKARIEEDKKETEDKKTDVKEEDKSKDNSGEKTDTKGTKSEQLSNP

Target: T1, V5-tagged full-length murine ARID5B (murine) (UniProt Q8BM75)
T1 sequence: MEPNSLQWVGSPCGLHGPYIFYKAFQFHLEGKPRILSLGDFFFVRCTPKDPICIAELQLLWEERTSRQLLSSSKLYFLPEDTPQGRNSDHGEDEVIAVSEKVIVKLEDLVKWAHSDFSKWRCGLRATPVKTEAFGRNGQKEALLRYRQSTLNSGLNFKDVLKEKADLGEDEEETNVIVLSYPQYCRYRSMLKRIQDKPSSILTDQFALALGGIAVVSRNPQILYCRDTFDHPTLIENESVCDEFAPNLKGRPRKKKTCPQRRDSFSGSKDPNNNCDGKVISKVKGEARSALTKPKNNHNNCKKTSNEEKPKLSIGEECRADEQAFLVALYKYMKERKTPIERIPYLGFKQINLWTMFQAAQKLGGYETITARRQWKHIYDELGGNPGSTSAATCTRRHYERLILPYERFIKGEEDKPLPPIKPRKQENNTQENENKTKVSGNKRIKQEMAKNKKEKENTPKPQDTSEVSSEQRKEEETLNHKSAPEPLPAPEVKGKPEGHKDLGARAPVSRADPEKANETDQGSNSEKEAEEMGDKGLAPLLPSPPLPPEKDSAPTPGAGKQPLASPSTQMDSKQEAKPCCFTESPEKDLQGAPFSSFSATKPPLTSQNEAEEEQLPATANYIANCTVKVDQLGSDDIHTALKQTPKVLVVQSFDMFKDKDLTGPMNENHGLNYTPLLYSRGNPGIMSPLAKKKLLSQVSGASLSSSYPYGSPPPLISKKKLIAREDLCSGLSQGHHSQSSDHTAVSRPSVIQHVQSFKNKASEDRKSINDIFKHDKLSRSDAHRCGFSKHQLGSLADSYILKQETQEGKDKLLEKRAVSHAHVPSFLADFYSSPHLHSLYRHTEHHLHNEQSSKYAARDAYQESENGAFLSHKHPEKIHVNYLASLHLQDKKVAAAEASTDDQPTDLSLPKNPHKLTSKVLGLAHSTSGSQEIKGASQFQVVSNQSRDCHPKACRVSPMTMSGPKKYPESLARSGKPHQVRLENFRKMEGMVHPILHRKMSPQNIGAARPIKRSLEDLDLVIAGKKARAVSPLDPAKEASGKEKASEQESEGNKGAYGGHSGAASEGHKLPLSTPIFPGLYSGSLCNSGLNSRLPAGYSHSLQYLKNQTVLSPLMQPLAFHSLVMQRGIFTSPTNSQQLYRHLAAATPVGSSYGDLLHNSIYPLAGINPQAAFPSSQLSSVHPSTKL
Test: co-IP; V5 Sepharose beads, 1 mg HAP1 lysate in IP Lysis Buffer (50 mM Tris-HCl pH 7.5, 150 mM NaCl, 2 mM EDTA, 0.5% Triton X-100, Benzonase), overnight at 4°C; immunoblotting of HDAC1 and HDAC2

binding	Substance
binds	HDAC1 (from UniProt Q13547 1-482) (enzyme)
binds	HDAC2 (from UniProt Q92769 1-488) (enzyme)
